Measurements: article PMC10100727
Results are given in words; binding and its absence hold for the method and conditions named. A result given as binding can be weak or reduced; the word gives no strength. For some of these results: In cells and extracts the contact can be indirect.

Key:
[1] = biological target: T1, STM1344 coexpressed with StFlhD (Salmonella Typhimurium) (UniProt Q8ZPS6); assay: pull-down; coexpression of STM1344 and StFlhD in E. coli BL21(DE3), complex purified on a Ni-NTA affinity column
T1 sequence: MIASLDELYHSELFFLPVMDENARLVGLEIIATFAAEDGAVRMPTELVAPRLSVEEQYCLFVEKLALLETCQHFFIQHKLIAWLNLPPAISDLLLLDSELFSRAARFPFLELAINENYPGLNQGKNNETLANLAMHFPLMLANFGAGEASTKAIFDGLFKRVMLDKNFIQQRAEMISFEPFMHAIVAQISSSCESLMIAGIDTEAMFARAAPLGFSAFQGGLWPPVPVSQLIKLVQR

[2] = biological target: FlhD used in size exclusion chromatography (S. Typhimurium); assay: SEC; FlhD mixed at the appropriate ratio with STM1344, STM1697, or STM1344 plus STM1697; 10 min at 4°C; Superdex 200; both purified
[3] = biological target: FlhD4C2 complex with a His tag (S. Typhimurium); assay: pull-down; FlhD4C2 with a His tag on HisLink resin, with STM1344 or mutants without the His tag; 4°C, 2 h; washed five times with 50 mM NaH2PO4, 300 mM NaCl, 20 mM imidazole pH 8.0; eluted with 250 mM imidazole; SDS-PAGE; both purified
[4] = biological target: FlhD4C2 complex with a His tag (S. Typhimurium); assay: native gel or EMSA; FlhD4C2 and 49-bp flhB promoter DNA preincubated 10 min with different ratios of STM1344; native 5% polyacrylamide gel; ethidium bromide and Coomassie staining; both purified

Molecule	binding [1]	binding [2]	binding [3]	binding [4]
S. Typhimurium FlhD without His tag	binds			
STM1344 (protein, UniProt Q8ZPS6 1-237) MIASLDELYHSELFFLPVMDENARLVGLEIIATFAAEDGAVRMPTELVAPRLSVEEQYCLFVEKLALLETCQHFFIQHKLIAWLNLPPAISDLLLLDSELFSRAARFPFLELAINENYPGLNQGKNNETLANLAMHFPLMLANFGAGEASTKAIFDGLFKRVMLDKNFIQQRAEMISFEPFMHAIVAQISSSCESLMIAGIDTEAMFARAAPLGFSAFQGGLWPPVPVSQLIKLVQR		binds	binds	binds
